Source: the supplement of paper PMC8728848
Some of the results follow.

Tests used:
Experiment in all cases: glycan array binding signal (z-score within array); higher = stronger binding
Conditions in all cases: glycan notation: IUPAC condensed, linker removed
GlcNAc(b1-3)Gal(b1-4)Glc = target: GlcNAc(b1-3)Gal(b1-4)Glc
How it was run: (§1)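 Negative Z-scores can be read as non-binding. The Z-score is calculated within each array and then averaged across arrays of one protein sequence at different concentrations or buffers and across linkers. Arrays, 3228 in all, were curated from the Consortium for Functional Glycomics database and kept only where the protein sequence was available.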

[1] = target: GlcNAc(b1-3)Gal(b1-4)GlcNAc
How it was run: as §1

[2] = target: GlcNAc(b1-3)Gal(b1-4)GlcNAc(b1-2)Man(a1-3)[GlcNAc(b1-3)Gal(b1-4)GlcNAc(b1-2)Man(a1-6)]Man(b1-4)GlcNAc(b1-4)GlcNAc
How it was run: as §1

[3] = target: GlcNAc(b1-3)Gal(b1-4)GlcNAc(b1-2)Man(a1-3)[GlcNAc(b1-3)Gal(b1-4)GlcNAc(b1-2)Man(a1-6)]Man(b1-4)GlcNAc(b1-4)[Fuc(a1-6)]GlcNAc
How it was run: as §1

[4] = target: GlcNAc(b1-3)Gal(b1-4)GlcNAc(b1-2)[GlcNAc(b1-3)Gal(b1-4)GlcNAc(b1-6)]Man(a1-6)[GlcNAc(b1-3)Gal(b1-4)GlcNAc(b1-2)Man(a1-3)]Man(b1-4)GlcNAc(b1-4)GlcNAc
How it was run: as §1

[5] = target: GlcNAc(b1-3)Gal(b1-4)GlcNAc(b1-3)Gal(b1-4)GlcNAc
How it was run: as §1

[6] = target: GlcNAc(b1-3)Gal(b1-4)GlcNAc(b1-3)Gal(b1-4)GlcNAc(b1-2)Man(a1-3)[GlcNAc(b1-3)Gal(b1-4)GlcNAc(b1-3)Gal(b1-4)GlcNAc(b1-2)Man(a1-6)]Man(b1-4)GlcNAc(b1-4)GlcNAc
How it was run: as §1

[7] = target: GlcNAc(b1-3)Gal(b1-4)GlcNAc(b1-3)Gal(b1-4)GlcNAc(b1-2)Man(a1-3)[GlcNAc(b1-3)Gal(b1-4)GlcNAc(b1-3)Gal(b1-4)GlcNAc(b1-2)Man(a1-6)]Man(b1-4)GlcNAc(b1-4)[Fuc(a1-6)]GlcNAc
How it was run: as §1

[8] = target: GlcNAc(b1-3)Gal(b1-4)GlcNAc(b1-3)Gal(b1-4)GlcNAc(b1-2)[GlcNAc(b1-3)Gal(b1-4)GlcNAc(b1-3)Gal(b1-4)GlcNAc(b1-6)]Man(a1-6)[GlcNAc(b1-3)Gal(b1-4)GlcNAc(b1-3)Gal(b1-4)GlcNAc(b1-2)Man(a1-3)]Man(b1-4)GlcNAc(b1-4)[Fuc(a1-6)]GlcNAc
How it was run: as §1

[9] = target: GlcNAc(b1-3)Gal(b1-4)GlcNAc(b1-3)Gal(b1-4)GlcNAc(b1-3)Gal(b1-4)GlcNAc(b1-2)Man(a1-3)[GlcNAc(b1-3)Gal(b1-4)GlcNAc(b1-3)Gal(b1-4)GlcNAc(b1-3)Gal(b1-4)GlcNAc(b1-2)Man(a1-6)]Man(b1-4)GlcNAc(b1-4)GlcNAc
How it was run: as §1

[10] = target: GlcNAc(b1-3)Gal(b1-4)GlcNAc(b1-3)Gal(b1-4)GlcNAc(b1-3)Gal(b1-4)GlcNAc(b1-2)Man(a1-3)[GlcNAc(b1-3)Gal(b1-4)GlcNAc(b1-3)Gal(b1-4)GlcNAc(b1-3)Gal(b1-4)GlcNAc(b1-2)Man(a1-6)]Man(b1-4)GlcNAc(b1-4)[Fuc(a1-6)]GlcNAc
How it was run: as §1

[11] = target: GlcNAc(b1-3)Gal(b1-4)GlcNAc(b1-3)Gal(b1-4)GlcNAc(b1-3)Gal(b1-4)GlcNAc(b1-2)[GlcNAc(b1-3)Gal(b1-4)GlcNAc(b1-3)Gal(b1-4)GlcNAc(b1-3)Gal(b1-4)GlcNAc(b1-6)]Man(a1-6)[GlcNAc(b1-3)Gal(b1-4)GlcNAc(b1-3)Gal(b1-4)GlcNAc(b1-3)Gal(b1-4)GlcNAc(b1-2)Man(a1-3)]Man(b1-4)GlcNAc(b1-4)[Fuc(a1-6)]GlcNAc
How it was run: as §1

[12] = target: GlcNAc(b1-3)Gal(b1-4)GlcNAc(b1-3)Gal(b1-4)GlcNAc(b1-3)Gal(b1-4)GlcNAc(b1-3)Gal(b1-4)GlcNAc(b1-2)Man(a1-3)[GlcNAc(b1-3)Gal(b1-4)GlcNAc(b1-3)Gal(b1-4)GlcNAc(b1-3)Gal(b1-4)GlcNAc(b1-3)Gal(b1-4)GlcNAc(b1-2)Man(a1-6)]Man(b1-4)GlcNAc(b1-4)GlcNAc
How it was run: as §1

[13] = target: GlcNAc(b1-3)Gal(b1-4)GlcNAc(b1-3)Gal(b1-4)GlcNAc(b1-3)Gal(b1-4)GlcNAc(b1-3)Gal(b1-4)GlcNAc(b1-2)Man(a1-3)[GlcNAc(b1-3)Gal(b1-4)GlcNAc(b1-3)Gal(b1-4)GlcNAc(b1-3)Gal(b1-4)GlcNAc(b1-3)Gal(b1-4)GlcNAc(b1-2)Man(a1-6)]Man(b1-4)GlcNAc(b1-4)[Fuc(a1-6)]GlcNAc
How it was run: as §1

[14] = target: GlcNAc(b1-3)Gal(b1-4)GlcNAc(b1-3)Gal(b1-4)GlcNAc(b1-3)Gal(b1-4)GlcNAc(b1-3)Gal(b1-4)GlcNAc(b1-2)[GlcNAc(b1-3)Gal(b1-4)GlcNAc(b1-3)Gal(b1-4)GlcNAc(b1-3)Gal(b1-4)GlcNAc(b1-3)Gal(b1-4)GlcNAc(b1-6)]Man(a1-6)[GlcNAc(b1-3)Gal(b1-4)GlcNAc(b1-3)Gal(b1-4)GlcNAc(b1-3)Gal(b1-4)GlcNAc(b1-3)Gal(b1-4)GlcNAc(b1-2)Man(a1-3)]Man(b1-4)GlcNAc(b1-4)[Fuc(a1-6)]GlcNAc
How it was run: as §1

[15] = target: GlcNAc(b1-3)Gal(b1-4)GlcNAc(b1-3)Gal(b1-4)GlcNAc(b1-3)GalNAc
How it was run: as §1

[16] = target: GlcNAc(b1-3)Gal(b1-4)GlcNAc(b1-3)GalNAc
How it was run: as §1

[17] = target: GlcNAc(b1-3)Gal(b1-4)GlcNAc(b1-3)[GlcNAc(b1-3)Gal(b1-4)GlcNAc(b1-3)]GalNAc
How it was run: as §1

[18] = target: GlcNAc(b1-3)Gal(b1-4)GlcNAc(b1-6)[Gal(b1-3)]GalNAc
How it was run: as §1

[19] = target: GlcNAc(b1-3)Gal(b1-4)GlcNAc(b1-6)[GlcNAc(b1-3)Gal(b1-3)]GalNAc
How it was run: as §1

[20] = target: GlcNAc(b1-3)Gal(b1-4)GlcNAc(b1-6)[GlcNAc(b1-3)]Gal(b1-4)GlcNAc
How it was run: as §1

GlcNAc(b1-3)GalNAc = target: GlcNAc(b1-3)GalNAc
How it was run: as §1

GlcNAc(b1-3)Man = target: GlcNAc(b1-3)Man
How it was run: as §1

[21] = target: GlcNAc(b1-3)[GlcNAc(b1-4)][GlcNAc(b1-6)]GlcNAc
How it was run: as §1

[22] = target: GlcNAc(b1-3)[GlcNAc(b1-6)]Gal(b1-4)GlcNAc
How it was run: as §1

[23] = target: GlcNAc(b1-3)[GlcNAc(b1-6)]GalNAc
How it was run: as §1

[24] = target: GlcNAc(b1-4)Gal(b1-4)GlcNAc
How it was run: as §1

GlcNAc(b1-4)GlcNAc = target: GlcNAc(b1-4)GlcNAc
How it was run: as §1

[25] = target: GlcNAc(b1-4)GlcNAc(b1-4)GlcNAc
How it was run: as §1

[26] = target: GlcNAc(b1-4)GlcNAc(b1-4)GlcNAc(b1-4)GlcNAc(b1-4)GlcNAc
How it was run: as §1

[27] = target: GlcNAc(b1-4)GlcNAc(b1-4)GlcNAc(b1-4)GlcNAc(b1-4)GlcNAc(b1-4)GlcNAc
How it was run: as §1

[28] = target: GlcNAc(b1-4)[GlcNAc(b1-6)]GalNAc
How it was run: as §1

[29] = target: GlcNAc(b1-6)Gal(b1-4)GlcNAc
How it was run: as §1

GlcNAc(b1-6)GalNAc = target: GlcNAc(b1-6)GalNAc
How it was run: as §1

[30] = target: GlcNAc6S(b1-3)Gal(b1-4)GlcNAc
How it was run: as §1

Kdn(a2-3)Gal(b1-3)GalNAc = target: Kdn(a2-3)Gal(b1-3)GalNAc
How it was run: as §1

Kdn(a2-3)Gal(b1-3)GlcNAc = target: Kdn(a2-3)Gal(b1-3)GlcNAc
How it was run: as §1

Kdn(a2-3)Gal(b1-4)Glc = target: Kdn(a2-3)Gal(b1-4)Glc
How it was run: as §1

Kdn(a2-3)Gal(b1-4)GlcNAc = target: Kdn(a2-3)Gal(b1-4)GlcNAc
How it was run: as §1

[31] = target: Kdn(a2-3)Gal(b1-4)[Fuc(a1-3)]GlcNAc
How it was run: as §1

Kdn(a2-6)Gal(b1-4)GlcNAc = target: Kdn(a2-6)Gal(b1-4)GlcNAc
How it was run: as §1

[32] = target: Man(a1-2)Man(a1-2)Man(a1-3)Man
How it was run: as §1

[33] = target: Man(a1-2)Man(a1-2)Man(a1-6)[Man(a1-3)]Man
How it was run: as §1

Man(a1-2)Man(a1-3)Man = target: Man(a1-2)Man(a1-3)Man
How it was run: as §1

[34] = target: Man(a1-2)Man(a1-3)[Man(a1-2)Man(a1-6)]Man
How it was run: as §1

B1: Mincle (Bos taurus) (protein)
chain: MNSSTSPASQTERRCFSFQLFSWAIAGTSILLLSACFITRCVVTYSIFQLCDEKKFQPPGDSMELSCYNDGSGSVKNCCPLKWFHFQSSCYLFSPDTMSWRASLKNCSSMGAHLVVINTQEEQEFLYYTKPRKKEFYIGLTDQVTEGQWQWVDGTPFTKSLSFWDAGEPNNLVIVEDCATIRDSSNPRQNWNDVPCFFNMFRVCEMPERKI
glycan array binding signal (z-score) (GlcNAc(b1-3)Gal(b1-4)Glc): 0.603
glycan array binding signal (z-score) [1]: -0.12
glycan array binding signal (z-score) [2]: -0.129
glycan array binding signal (z-score) [3]: 0.491
glycan array binding signal (z-score) [4]: 1.42
glycan array binding signal (z-score) [5]: -0.57
glycan array binding signal (z-score) [6]: 1.52
glycan array binding signal (z-score) [7]: 0.26
glycan array binding signal (z-score) [8]: 0.11
glycan array binding signal (z-score) [9]: 0.166
glycan array binding signal (z-score) [10]: -0.142
glycan array binding signal (z-score) [11]: 1.03
glycan array binding signal (z-score) [12]: 0.079
glycan array binding signal (z-score) [13]: -0.454
glycan array binding signal (z-score) [14]: 1.23
glycan array binding signal (z-score) [15]: 0.106
glycan array binding signal (z-score) [16]: -0.297
glycan array binding signal (z-score) [17]: 0.084
glycan array binding signal (z-score) [18]: -0.985
glycan array binding signal (z-score) [19]: -0.472
glycan array binding signal (z-score) [20]: 0.307
glycan array binding signal (z-score) (GlcNAc(b1-3)GalNAc): -0.313
glycan array binding signal (z-score) (GlcNAc(b1-3)Man): -0.182
glycan array binding signal (z-score) [21]: 5.17
glycan array binding signal (z-score) [22]: 0.574
glycan array binding signal (z-score) [23]: 0.888
glycan array binding signal (z-score) [24]: 0.508
glycan array binding signal (z-score) (GlcNAc(b1-4)GlcNAc): 0.05
glycan array binding signal (z-score) [25]: -0.899
glycan array binding signal (z-score) [26]: -0.226
glycan array binding signal (z-score) [27]: -0.478
glycan array binding signal (z-score) [28]: 0.173
glycan array binding signal (z-score) [29]: 0.257
glycan array binding signal (z-score) (GlcNAc(b1-6)GalNAc): 0.469
glycan array binding signal (z-score) [30]: 0.032
glycan array binding signal (z-score) (Kdn(a2-3)Gal(b1-3)GalNAc): 0.487
glycan array binding signal (z-score) (Kdn(a2-3)Gal(b1-3)GlcNAc): 0.033
glycan array binding signal (z-score) (Kdn(a2-3)Gal(b1-4)Glc): -1.1
glycan array binding signal (z-score) (Kdn(a2-3)Gal(b1-4)GlcNAc): -0.052
glycan array binding signal (z-score) [31]: -0.508
glycan array binding signal (z-score) (Kdn(a2-6)Gal(b1-4)GlcNAc): -0.599
glycan array binding signal (z-score) [32]: 6.56
glycan array binding signal (z-score) [33]: 4.79
glycan array binding signal (z-score) (Man(a1-2)Man(a1-3)Man): 3.01
glycan array binding signal (z-score) [34]: 7.29
